Laboratory results published in paper PMC5322342.
These are yes or no findings as the source states them, for the method shown. Binding seen in cells or lysates may run through a third protein. Some results given as binding are weak or reduced against the parent protein; the word gives no strength. Tags and fused reporters may be left off the sequences shown.

T1: sGC α2(1-713) with C-terminal HA or FLAG tag (human) (UniProt P33402)
T1 sequence: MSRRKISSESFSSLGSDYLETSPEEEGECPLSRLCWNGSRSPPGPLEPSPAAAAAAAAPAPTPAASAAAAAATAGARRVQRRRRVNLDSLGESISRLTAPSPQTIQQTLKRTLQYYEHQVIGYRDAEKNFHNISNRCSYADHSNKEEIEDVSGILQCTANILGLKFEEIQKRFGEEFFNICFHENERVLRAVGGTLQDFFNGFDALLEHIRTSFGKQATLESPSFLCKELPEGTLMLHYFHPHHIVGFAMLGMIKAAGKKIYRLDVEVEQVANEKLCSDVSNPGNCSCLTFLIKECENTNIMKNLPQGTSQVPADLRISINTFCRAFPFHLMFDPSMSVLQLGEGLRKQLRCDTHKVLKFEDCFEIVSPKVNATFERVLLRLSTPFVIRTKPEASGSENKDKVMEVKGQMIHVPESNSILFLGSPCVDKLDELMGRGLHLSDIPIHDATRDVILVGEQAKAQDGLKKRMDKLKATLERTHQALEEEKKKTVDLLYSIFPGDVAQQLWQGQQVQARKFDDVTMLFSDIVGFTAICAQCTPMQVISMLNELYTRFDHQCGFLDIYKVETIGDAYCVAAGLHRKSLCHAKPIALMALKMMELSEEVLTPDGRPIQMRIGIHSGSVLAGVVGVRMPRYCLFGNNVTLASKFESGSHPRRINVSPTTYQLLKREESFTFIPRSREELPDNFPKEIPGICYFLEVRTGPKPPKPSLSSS


Experiments:
[1] = molecular target: T1, sGC α2(1-713) with C-terminal HA or FLAG tag (human); test: co-IP; SH-SY5Y cells transiently co-transfected with three HA-/FLAG-tagged constructs at a time (eight combinations); HA-tagged construct precipitated with anti-HA antibody and Protein A/G Plus Agarose (Pierce Classic IP Kit), overnight at 4 °C; co-precipitated FLAG-tagged constructs detected by anti-FLAG immunoblot
[2] = molecular target: sGC α1(1-690) with C-terminal HA or FLAG tag (human) (UniProt Q02108); test: as above

| Binder | binding [1] | binding [2] |
| --- | --- | --- |
| sGC α1(1-690) with C-terminal HA or FLAG tag (protein, UniProt Q02108 1-690) MFCTKLKDLKITGECPFSLLAPGQVPNESSEEAAGSSESCKATVPICQDIPEKNIQESLPQRKTSRSRVYLHTLAESICKLIFPEFERLNVALQRTLAKHKIKESRKSLEREDFEKTIAEQAVAAGVPVEVIKESLGEEVFKICYEEDENILGVVGGTLKDFLNSFSTLLKQSSHCQEAGKRGRLEDASILCLDKEDDFLHVYYFFPKRTTSLILPGIIKAAAHVLYETEVEVSLMPPCFHNDCSEFVNQPYLLYSVHMKSTKPSLSPSKPQSSLVIPTSLFCKTFPFHFMFDKDMTILQFGNGIRRLMNRRDFQGKPNFEEYFEILTPKINQTFSGIMTMLNMQFVVRVRRWDNSVKKSSRVMDLKGQMIYIVESSAILFLGSPCVDRLEDFTGRGLYLSDIPIHNALRDVVLIGEQARAQDGLKKRLGKLKATLEQAHQALEEEKKKTVDLLCSIFPCEVAQQLWQGQVVQAKKFSNVTMLFSDIVGFTAICSQCSPLQVITMLNALYTRFDQQCGELDVYKVETIGDAYCVAGGLHKESDTHAVQIALMALKMMELSDEVMSPHGEPIKMRIGLHSGSVFAGVVGVKMPRYCLFGNNVTLANKFESCSVPRKINVSPTTYRLLKDCPGFVFTPRSREELPPNFPSEIPGICHFLDAYQQGTNSKPCFQKKDVEDGNANFLGKASGID |  | binds |
| sGC α2(1-713) with C-terminal HA or FLAG tag (protein, UniProt P33402-1 1-713) MSRRKISSESFSSLGSDYLETSPEEEGECPLSRLCWNGSRSPPGPLEPSPAAAAAAAAPAPTPAASAAAAAATAGARRVQRRRRVNLDSLGESISRLTAPSPQTIQQTLKRTLQYYEHQVIGYRDAEKNFHNISNRCSYADHSNKEEIEDVSGILQCTANILGLKFEEIQKRFGEEFFNICFHENERVLRAVGGTLQDFFNGFDALLEHIRTSFGKQATLESPSFLCKELPEGTLMLHYFHPHHIVGFAMLGMIKAAGKKIYRLDVEVEQVANEKLCSDVSNPGNCSCLTFLIKECENTNIMKNLPQGTSQVPADLRISINTFCRAFPFHLMFDPSMSVLQLGEGLRKQLRCDTHKVLKFEDCFEIVSPKVNATFERVLLRLSTPFVIRTKPEASGSENKDKVMEVKGQMIHVPESNSILFLGSPCVDKLDELMGRGLHLSDIPIHDATRDVILVGEQAKAQDGLKKRMDKLKATLERTHQALEEEKKKTVDLLYSIFPGDVAQQLWQGQQVQARKFDDVTMLFSDIVGFTAICAQCTPMQVISMLNELYTRFDHQCGFLDIYKVETIGDAYCVAAGLHRKSLCHAKPIALMALKMMELSEEVLTPDGRPIQMRIGIHSGSVLAGVVGVRMPRYCLFGNNVTLASKFESGSHPRRINVSPTTYQLLKREESFTFIPRSREELPDNFPKEIPGICYFLEVRTGPKPPKPSLSSS | binds |  |

Second part, the binder after the results:

| binding [1] | binding [2] | Binder |
| --- | --- | --- |
| binds |  | sGC β1(1-619) with C-terminal HA or FLAG tag (protein, UniProt Q02153 1-619) MYGFVNHALELLVIRNYGPEVWEDIKKEAQLDEEGQFLVRIIYDDSKTYDLVAAASKVLNLNAGEILQMFGKMFFVFCQESGYDTILRVLGSNVREFLQNLDALHDHLATIYPGMRAPSFRCTDAEKGKGLILHYYSEREGLQDIVIGIIKTVAQQIHGTEIDMKVIQQRNEECDHTQFLIEEKESKEEDFYEDLDRFEENGTQESRISPYTFCKAFPFHIIFDRDLVVTQCGNAIYRVLPQLQPGNCSLLSVFSLVRPHIDISFHGILSHINTVFVLRSKEGLLDVEKLECEDELTGTEISCLRLKGQMIYLPEADSILFLCSPSVMNLDDLTRRGLYLSDIPLHDATRDLVLLGEQFREEYKLTQELEILTDRLQLTLRALEDEKKKTDTLLYSVLPPSVANELRHKRPVPAKRYDNVTILFSGIVGFNAFCSKHASGEGAMKIVNLLNDLYTRFDTLTDSRKNPFVYKVETVGDKYMTVSGLPEPCIHHARSICHLALDMMEIAGQVQVDGESVQITIGIHTGEVVTGVIGQRMPRYCLFGNTVNLTSRTETTGEKGKINVSEYTYRCLMSPENSDPQFHLEHRGPVSMKGKKEPMQVWFLSRKNTGTEETKQDDD |
| binds |  | sGC β1(1-619) H105G with C-terminal FLAG tag (protein, UniProt Q02153 1-619) MYGFVNHALELLVIRNYGPEVWEDIKKEAQLDEEGQFLVRIIYDDSKTYDLVAAASKVLNLNAGEILQMFGKMFFVFCQESGYDTILRVLGSNVREFLQNLDALGDHLATIYPGMRAPSFRCTDAEKGKGLILHYYSEREGLQDIVIGIIKTVAQQIHGTEIDMKVIQQRNEECDHTQFLIEEKESKEEDFYEDLDRFEENGTQESRISPYTFCKAFPFHIIFDRDLVVTQCGNAIYRVLPQLQPGNCSLLSVFSLVRPHIDISFHGILSHINTVFVLRSKEGLLDVEKLECEDELTGTEISCLRLKGQMIYLPEADSILFLCSPSVMNLDDLTRRGLYLSDIPLHDATRDLVLLGEQFREEYKLTQELEILTDRLQLTLRALEDEKKKTDTLLYSVLPPSVANELRHKRPVPAKRYDNVTILFSGIVGFNAFCSKHASGEGAMKIVNLLNDLYTRFDTLTDSRKNPFVYKVETVGDKYMTVSGLPEPCIHHARSICHLALDMMEIAGQVQVDGESVQITIGIHTGEVVTGVIGQRMPRYCLFGNTVNLTSRTETTGEKGKINVSEYTYRCLMSPENSDPQFHLEHRGPVSMKGKKEPMQVWFLSRKNTGTEETKQDDD |
